A: 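Whole-cell assay for inhibitors of Mycobacterium tuberculosis growth, labelled Cornell in the record; the read-out is not stated. The concentration is filed as 10 mM, unlikely as a test dose, so the dose is not known. The record gives no direction; compounds strong in two other growth screens of this library score well above the rest, so higher reads as stronger inhibition. Of about 53,000 compounds tested this way, about 900 (1.7%) reached 50% or more in at least one test.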
B: 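Assay on Mycobacterium tuberculosis, filed only as a heat shock assay from Cornell; the read-out is not stated. The concentration is filed as 10 mM, unlikely as a test dose, so the dose is not known. The record gives no direction; compounds that gave an IC50 in retests scored well above the rest, so higher reads as stronger inhibition. Of about 69,000 compounds tested this way, about 930 (1.4%) reached 50% or more in at least one test.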

The filed quantity is “Percent Effect” (%).
The controls that fix the scale are not given in the record; negative values are as filed.
Compounds were drawn at random from those tested, without regard to their results.
A dash means the value is not listed here; it may have been measured.

| # | Compound | A | B |
|---|---|---|---|
| 1 | `O=C(O)C(F)(F)F.[H][C@@]12CN(Cc3cccc(C)c3)C[C@]1([H])OCCN2S(=O)(=O)N(C)C` | 17.61% | -26.69% |
| 2 | `Cc1cnn(CC(C)NCc2csc(-c3ccsc3)n2)c1` (stereo not given) | - | 27.16% |
| 3 | `O=C(CSC1CCc2ccccc2NC1=O)NCCc1ccc(O)cc1` (stereo not given) | -13.35% | 7.847% |
| 4 | `Cc1cc(C)c2nc(C)cc(C(=O)N3CC(O)CO3)c2c1` (stereo not given) | -11% | -24.56% |
| 5 | `CCOc1ccc(N(CCC#N)C(=O)c2ccnc(SC)c2)cc1` | -52.78% | 5.071% |
| 6 | `CCn1cnnc1CCNCc1c[nH]nc1-c1ccc(F)cc1` | - | -40.01% |
| 7 | `O=C(O)CC(CC(=O)NCCc1ccsc1)c1cccs1` (stereo not given) | 0.02029% | -16.35% |
| 8 | `Cc1ccc(CN2CCOCC2c2[nH]ncc2C)cn1` (stereo not given) | 43.63% | 5.662% |
| 9 | `Cc1ccc(CN2CCc3ncnc(-c4ccc(F)cc4)c3CC2)o1.O=C(O)C(F)(F)F` | 34.37% | 5.05% |
| 10 | `COc1ccc(CNC(=O)Nc2ccc(S(=O)(=O)C(F)F)cc2)cc1` | 13.14% | -4.151% |
| 11 | `CCc1cnc(N2CCN(Cc3ccno3)CC2)s1` | 42.23% | 0.2927% |
| 12 | `COc1ccccc1C(C)(C)NCc1ccc(C)o1` | 9.444% | -16.03% |
| 13 | `CS(=O)(=O)c1ccc(OCCNCc2ccc(F)cc2F)cc1` | 41.82% | -22.26% |
| 14 | `CCN(Cc1ccc2c(c1)OCCO2)C(=O)NC(C)Cn1cccn1` (stereo not given) | - | -2.107% |
| 15 | `Cc1c(C(=O)N(CCN(C)C)Cc2ccccn2)oc2ccccc12` | -13.85% | -19.46% |
| 16 | `O=C(O)C(F)(F)F.O=C(O)C(F)(F)F.[H][C@]12C[C@@H](CN3CCCC3)N(C)[C@@]1([H])CCN(C(=O)Cc1cccs1)C2` | -2.443% | -33.06% |
| 17 | `[H][C@]12CC[C@]([H])(CN(Cc3ccncc3)C1)N(C(=O)C1(C#N)CCOCC1)C2` | - | 2.967% |
| 18 | `CC(C)NC(=O)[C@@H]1CN(C(=O)C2CC2)C[C@]12Cc1ccccc1C(=O)N2` | 41.43% | 14.86% |
| 19 | `CC(Cn1cccn1)NCC(=O)N(C)Cc1ccsc1` (stereo not given) | -10.75% | -1.149% |
| 20 | `Cc1cc(C2CN(CC(=O)NCc3ccco3)CCO2)ccc1F` (stereo not given) | 7.332% | -10.71% |
| 21 | `c1cnc(N2CCC3(CCCN(CC4CCCCC4)C3)C2)cn1` (stereo not given) | - | -3.621% |
| 22 | `CC1CCC(NC(=O)c2nn(C)cc2I)CC1` (stereo not given) | - | 1.96% |
| 23 | `O=C(NCCc1cccc(F)c1)C1(n2cnnn2)CCCCC1` | 18.95% | 90.07% |
| 24 | `CCN(Cc1c(C)nn(CC)c1C)S(=O)(=O)c1cnn(C)c1C` | -7.954% | -7.009% |
| 25 | `Cc1ccc(-c2nc(C3CCN(C(=O)c4ccn(C)n4)CC3)no2)cn1` | 43.2% | -9.716% |
| 26 | `CN(C)C(=O)N1Cc2ccccc2C2(CCN(C3CCOCC3)CC2)C1` | - | 15.69% |
| 27 | `O=C(O)C(F)(F)F.[H][C@@]12CN(CC3CC3)CCO[C@]1([H])CN(C(=O)C1CC(F)(F)C1)C2` | -17.3% | -22.01% |
| 28 | `O=C(NCc1cccc(F)c1)NCC(O)c1cccc(F)c1` (stereo not given) | -28.09% | -18.48% |
| 29 | `CN(C)c1nc2n(c(=O)n1)CCN2C(=O)Nc1ccccc1` | -2.789% | 18.42% |
| 30 | `Cc1ccc(C)c(NCc2nc3n(n2)CCCCC3)c1` | 31.12% | -22.14% |
| 31 | `Cc1ccc(C(=O)N(C)C)cc1NC(=O)COCC1CC1` | 14.15% | 23.6% |
| 32 | `OC1(CN2CCCC2)CCCN(Cc2ccc(F)cc2Cl)C1` (stereo not given) | 18.88% | 20.89% |
| 33 | `CC(C)C(=O)NC1COC2(CCN(Cc3cccnc3)CC2)C1.O=C(O)C(F)(F)F.O=C(O)C(F)(F)F` (stereo not given) | - | -6.268% |
| 34 | `CC(C)N1CCN(C(=O)c2ccc(Cn3ccccc3=O)o2)CC1` | - | -22.77% |
| 35 | `Cc1sc2nc(C(F)(F)F)nc(N3CCC(NS(C)(=O)=O)CC3)c2c1C` | 21.74% | 7.706% |
| 36 | `O=C(O)C(F)(F)F.[H][C@@]12COC[C@]1([H])[C@@H](OCC1CC1)CN2Cc1c(C)noc1C` | -6.981% | -23.66% |
| 37 | `[H][C@]12CCN(C(=O)CCO)C[C@@]1([H])OCCN(C(=O)c1ccco1)C2` | 9.289% | -8.702% |
| 38 | `CC(C)c1cccc(-n2cc(O)c(C(=O)NCCCn3cccn3)n2)c1` | 30.15% | -2.092% |
| 39 | `Cc1cc(NCc2cc3n(n2)CCCN(C(=O)N(C)C)C3)ncn1` | 25.87% | -14.26% |
| 40 | `COCCNC(=O)C1(Cc2ccccc2-c2ccncc2)CCOCC1` | -69.34% | 2.414% |
| 41 | `Fc1ccccc1CC1CCN(Cc2ccccn2)CC1` | 29.36% | 54.97% |
| 42 | `O=C(O)C(F)(F)F.O=C(O)C(F)(F)F.[H][C@@]12CN(Cc3csc(C)n3)CCO[C@]1([H])CN(Cc1cccs1)C2` | 21.28% | -15.47% |
| 43 | `COc1ccc(COCC(O)CNC(=O)Cc2ccc(C)cc2)cc1` (stereo not given) | -0.9427% | -8.55% |
| 44 | `NCC1Cc2cc(Oc3cc(F)c(CN4CCCC4)c(F)c3)ccc2O1` (stereo not given) | 18.23% | -12.35% |
| 45 | `CN1N=C(C(=O)N2CCCC(CCc3ccccc3F)C2)CCC1=O` (stereo not given) | 23.37% | -0.5843% |
| 46 | `[H][C@@]12CCCCN(Cc3cccs3)[C@]1([H])CN(S(=O)(=O)c1ccccc1)C2` | -0.638% | 36.51% |
| 47 | `CN(C)c1cc(CNC(=O)NCC2(C)CCCS2)ccn1` (stereo not given) | -4.878% | 1.064% |
| 48 | `CC(C)c1nnc2n1CCN(CC(=O)N1CCc3sccc3C1)C2` | - | -23.49% |
| 49 | `Cc1noc(C)c1CN1CCc2ncnc(-c3cccnc3)c2CC1.O=C(O)C(F)(F)F.O=C(O)C(F)(F)F` | 0.06753% | 12.88% |
| 50 | `Cc1cc(CNc2nccc(N)n2)c2[nH]c(C)c(C)c2c1` | 5.019% | 6.431% |
| 51 | `Cc1noc(C)c1CNC(=O)N1CCN(Cc2cscn2)CC1` | - | -9.365% |
| 52 | `Cc1nc(C)c2c(n1)CCN(Cc1nccn1C)CC2.O=C(O)C(F)(F)F` | 5.361% | 27.11% |
| 53 | `CNC(=O)C1CN(c2ncccn2)CCN1Cc1ccccc1` (stereo not given) | 6.646% | 0.05946% |
| 54 | `O=C(NC[C@H]1OC[C@@H](NCc2ccc(F)cc2)[C@@H]1O)c1ccncc1` | -1.441% | -32.54% |

For reference, 6 entries once more:

{"compound": "CC(C)NC(=O)[C@@H]1CN(C(=O)C2CC2)C[C@]12Cc1ccccc1C(=O)N2", "A": 41.43, "B": 14.86}
{"compound": "Cc1ccc(CN2CCc3ncnc(-c4ccc(F)cc4)c3CC2)o1.O=C(O)C(F)(F)F", "A": 34.37, "B": 5.05}
{"compound": "CN(C)C(=O)N1Cc2ccccc2C2(CCN(C3CCOCC3)CC2)C1", "B": 15.69}
{"compound": "COc1ccccc1C(C)(C)NCc1ccc(C)o1", "A": 9.444, "B": -16.03}
{"compound": "Cc1ccc(-c2nc(C3CCN(C(=O)c4ccn(C)n4)CC3)no2)cn1", "A": 43.2, "B": -9.716}
{"compound": "Cc1nc(C)c2c(n1)CCN(Cc1nccn1C)CC2.O=C(O)C(F)(F)F", "A": 5.361, "B": 27.11}

The values are deposited in ChEMBL (CHEMBL3988442, “University of Dundee, Small-Polar-MMV Screening Library” (2021)).